Measurements taken from ChEMBL document CHEMBL1141125, “Heteroaryl-substituted naphthalenes and structurally modified derivatives: selective inhibitors of CYP11B2 for the treatment of congestive heart failure and myocardial fibrosis” (J Med Chem, 2005).

What was measured:
Aromatase = target: T1, Aromatase (Homo sapiens, UniProt P11511)
T1 sequence (P11511 whole entry): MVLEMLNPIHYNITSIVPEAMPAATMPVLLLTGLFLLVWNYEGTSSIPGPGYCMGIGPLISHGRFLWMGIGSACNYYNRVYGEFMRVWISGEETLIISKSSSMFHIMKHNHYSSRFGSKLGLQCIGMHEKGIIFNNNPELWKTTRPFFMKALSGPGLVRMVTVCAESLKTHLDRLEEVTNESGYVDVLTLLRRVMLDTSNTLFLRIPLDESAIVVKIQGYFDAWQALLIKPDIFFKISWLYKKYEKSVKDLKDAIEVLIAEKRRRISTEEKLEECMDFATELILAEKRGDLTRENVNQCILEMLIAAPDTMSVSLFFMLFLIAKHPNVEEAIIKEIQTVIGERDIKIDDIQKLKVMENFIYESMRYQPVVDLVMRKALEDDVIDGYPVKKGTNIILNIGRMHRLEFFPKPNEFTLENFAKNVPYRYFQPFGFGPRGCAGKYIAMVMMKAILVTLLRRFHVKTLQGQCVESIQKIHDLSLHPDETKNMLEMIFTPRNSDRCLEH

Homo sapiens = organism: Homo sapiens; test: Ratio between inhibitory concentration of cytochrome P450 11B1 to cytochrome P450 11B2
In short: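 Confluent V79 MZh hamster lung fibroblasts expressing human CYP11B1 or CYP11B2, in DMEM. Preincubated 60 min at 37 °C with inhibitor at three or more concentrations. [4-14C]11-deoxycorticosterone substrate, 100 nM. Incubation 120 min for CYP11B1 and 40 min for CYP11B2; controls without inhibitor. Ethyl acetate extraction, then HPTLC with phosphoimager quantification, giving IC50.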

Compound | IC50 (Aromatase) | Selectivity factor (Homo sapiens)
Oc1ccc2cc(-c3cccnc3)ccc2c1 | > 36 µM | –
c1ccc2cc(-n3ccnc3)ccc2c1 | – | 35
